From the supplement of paper PMC8728848
This is one part of the list.

Key:
Test in all cases: glycan array binding signal (z-score within array); higher = stronger binding
Conditions in all cases: glycan notation: IUPAC condensed, linker removed
[1] = target: Neu5Ac(a2-6)GlcNAc(b1-4)GlcNAc(b1-4)GlcNAc
Outline: (§1)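 The binding signal is a Z-score computed within each array and averaged over linkers. Arrays of the same protein sequence at different concentrations or buffers were also averaged together. Data originate from 3228 arrays in the Consortium for Functional Glycomics database, kept only where the protein sequence was available.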

Neu5Ac(a2-8)Neu5Ac = target: Neu5Ac(a2-8)Neu5Ac
Outline: as §1

[2] = target: Neu5Ac(a2-8)Neu5Ac(a2-3)Gal(b1-3)GalNAc(b1-4)[Neu5Ac(a2-3)]Gal(b1-4)Glc
Outline: as §1

[3] = target: Neu5Ac(a2-8)Neu5Ac(a2-3)Gal(b1-3)GalNAc(b1-4)[Neu5Ac(a2-8)Neu5Ac(a2-3)]Gal(b1-4)Glc
Outline: as §1

[4] = target: Neu5Ac(a2-8)Neu5Ac(a2-3)Gal(b1-4)Glc
Outline: as §1

[5] = target: Neu5Ac(a2-8)Neu5Ac(a2-3)Gal(b1-4)GlcNAc
Outline: as §1

[6] = target: Neu5Ac(a2-8)Neu5Ac(a2-3)[Gal(b1-3)GalNAc(b1-4)]Gal(b1-4)Glc
Outline: as §1

[7] = target: Neu5Ac(a2-8)Neu5Ac(a2-3)[GalNAc(b1-4)]Gal(b1-4)Glc
Outline: as §1

[8] = target: Neu5Ac(a2-8)Neu5Ac(a2-8)Neu5Ac
Outline: as §1

[9] = target: Neu5Ac(a2-8)Neu5Ac(a2-8)Neu5Ac(a2-3)Gal(b1-4)Glc
Outline: as §1

[10] = target: Neu5Ac(a2-8)Neu5Ac(a2-8)Neu5Ac(a2-3)[Gal(b1-3)GalNAc(b1-4)]Gal(b1-4)Glc
Outline: as §1

[11] = target: Neu5Ac(a2-8)Neu5Ac(a2-8)Neu5Ac(a2-3)[GalNAc(b1-4)]Gal(b1-4)Glc
Outline: as §1

[12] = target: Neu5Ac(a2-8)Neu5Ac(a2-8)Neu5Ac(a2-8)Neu5Ac(a2-3)[GalNAc(b1-4)]Gal(b1-4)Glc
Outline: as §1

[13] = target: Neu5Ac(a2-8)Neu5Gc(a2-3)Gal(b1-4)GlcNAc
Outline: as §1

[14] = target: Neu5Ac(b2-6)Gal(b1-4)GlcNAc
Outline: as §1

Neu5Ac(b2-6)GalNAc = target: Neu5Ac(b2-6)GalNAc
Outline: as §1

[15] = target: Neu5Ac9Ac(a2-3)Gal(b1-3)GlcNAc
Outline: as §1

[16] = target: Neu5Ac9Ac(a2-3)Gal(b1-4)GlcNAc
Outline: as §1

[17] = target: Neu5Ac9Ac(a2-6)Gal(b1-4)GlcNAc
Outline: as §1

[18] = target: Neu5Gc(a2-3)Gal(b1-3)GlcNAc
Outline: as §1

[19] = target: Neu5Gc(a2-3)Gal(b1-3)[Fuc(a1-4)]GlcNAc
Outline: as §1

Neu5Gc(a2-3)Gal(b1-4)Glc = target: Neu5Gc(a2-3)Gal(b1-4)Glc
Outline: as §1

[20] = target: Neu5Gc(a2-3)Gal(b1-4)GlcNAc
Outline: as §1

[21] = target: Neu5Gc(a2-3)Gal(b1-4)GlcNAc(b1-3)Gal(b1-4)GlcNAc(b1-2)Man(a1-3)[Neu5Gc(a2-3)Gal(b1-4)GlcNAc(b1-3)Gal(b1-4)GlcNAc(b1-2)Man(a1-6)]Man(b1-4)GlcNAc(b1-4)GlcNAc
Outline: as §1

[22] = target: Neu5Gc(a2-3)Gal(b1-4)[Fuc(a1-3)]GlcNAc
Outline: as §1

[23] = target: Neu5Gc(a2-6)Gal(b1-4)GlcNAc
Outline: as §1

Neu5Gc(a2-6)GalNAc = target: Neu5Gc(a2-6)GalNAc
Outline: as §1

[24] = target: Neu5Gc(a2-8)Neu5Ac(a2-3)Gal(b1-4)GlcNAc
Outline: as §1

[25] = target: Neu5Gc(a2-8)Neu5Gc(a2-3)Gal(b1-4)GlcNAc
Outline: as §1

[26] = target: Neu5Gc(a2-8)Neu5Gc(a2-3)Gal(b1-4)GlcNAc(b1-3)Gal(b1-4)GlcNAc
Outline: as §1

[27] = target: Neu5Gc(a2-8)Neu5Gc(a2-6)Gal(b1-4)GlcNAc
Outline: as §1

[28] = target: Neu5Gc(b2-6)Gal(b1-4)GlcNAc
Outline: as §1

B1: PX14343E-bfa-545-24-545 (Bacteroides fragilis) (protein)
chain: LDRYPQEELSDGSFWKTPDDANKVVSDLYGYLSTWDQDNDINSDNATMGIKWAAGNVSKGIYDPADQGWSGDYANVRQCNLILSKIDEIPDYPEADKTKALGQVYFFRAYIYFNLIRSFGDVPYIDKPLDLKDMEGITRMPRAEVYEKIMADFDKAIAALPTEWGASDYGRVTKGAAMAMKARAALYYGNWDTAATEAKNVMDLGLYELYDKDNTGKYAELFWEKADGCDEFILVTQFNYPDKTHYLMGWECFPTKGWGGMNPTQSLVDAFEDSEGAPISKSKIYDPTDPFKNRDPRLEVDILHDGEEMYGVTIKVAPLASSGSTGINQHNDATETGYYGQKWLDPSLDPLSDGWNMGKDWVHIRYAEVLLTYAEAKNELQGLDPEAFDAVNQVRRRVGMPELQNTDPSKPTYCATQDDLRQRIRNEWRVEFCLEGGKRMWDIRRWGIAKDVLNAPFEGLKYKIVDNPNDPDKKVDGGKMCILYQGDPIILSGSRYSDNNYLFPVPQSEIDLNPALTQNPGY
glycan array binding signal (z-score) [1]: -0.709 | glycan array binding signal (z-score) (Neu5Ac(a2-8)Neu5Ac): -0.672 | glycan array binding signal (z-score) [2]: -0.456 | glycan array binding signal (z-score) [3]: -0.28 | glycan array binding signal (z-score) [4]: -0.996 | glycan array binding signal (z-score) [5]: -0.701 | glycan array binding signal (z-score) [6]: 0.458 | glycan array binding signal (z-score) [7]: 0.486 | glycan array binding signal (z-score) [8]: -0.367 | glycan array binding signal (z-score) [9]: 0.562 | glycan array binding signal (z-score) [10]: -0.399 | glycan array binding signal (z-score) [11]: -0.298 | glycan array binding signal (z-score) [12]: 2.6 | glycan array binding signal (z-score) [13]: -0.097 | glycan array binding signal (z-score) [14]: -0.513 | glycan array binding signal (z-score) (Neu5Ac(b2-6)GalNAc): -0.887 | glycan array binding signal (z-score) [15]: 0.462 | glycan array binding signal (z-score) [16]: -0.239 | glycan array binding signal (z-score) [17]: -0.75 | glycan array binding signal (z-score) [18]: -0.465 | glycan array binding signal (z-score) [19]: 0.107 | glycan array binding signal (z-score) (Neu5Gc(a2-3)Gal(b1-4)Glc): -0.205 | glycan array binding signal (z-score) [20]: 0.54 | glycan array binding signal (z-score) [21]: -0.44 | glycan array binding signal (z-score) [22]: -0.376 | glycan array binding signal (z-score) [23]: -0.103 | glycan array binding signal (z-score) (Neu5Gc(a2-6)GalNAc): -0.46 | glycan array binding signal (z-score) [24]: -0.678 | glycan array binding signal (z-score) [25]: -1.07 | glycan array binding signal (z-score) [26]: -1.12 | glycan array binding signal (z-score) [27]: 0.649 | glycan array binding signal (z-score) [28]: 0.11
